The supplement of paper PMC3334620
Over roughly 33,000 sequences, “E-score (-0.5 to 0.5)” has its median near -0.016; the highest 2% begin near 0.3. Some of the results follow.

target: T1, Yer184c (UniProt P39961); experiment: PBM E-score (8-mer binding enrichment) (E-score (-0.5 to 0.5)); higher = stronger / more preferred TF binding; conditions: protein concentration: 100 nM; construct: GST-full length
T1 sequence: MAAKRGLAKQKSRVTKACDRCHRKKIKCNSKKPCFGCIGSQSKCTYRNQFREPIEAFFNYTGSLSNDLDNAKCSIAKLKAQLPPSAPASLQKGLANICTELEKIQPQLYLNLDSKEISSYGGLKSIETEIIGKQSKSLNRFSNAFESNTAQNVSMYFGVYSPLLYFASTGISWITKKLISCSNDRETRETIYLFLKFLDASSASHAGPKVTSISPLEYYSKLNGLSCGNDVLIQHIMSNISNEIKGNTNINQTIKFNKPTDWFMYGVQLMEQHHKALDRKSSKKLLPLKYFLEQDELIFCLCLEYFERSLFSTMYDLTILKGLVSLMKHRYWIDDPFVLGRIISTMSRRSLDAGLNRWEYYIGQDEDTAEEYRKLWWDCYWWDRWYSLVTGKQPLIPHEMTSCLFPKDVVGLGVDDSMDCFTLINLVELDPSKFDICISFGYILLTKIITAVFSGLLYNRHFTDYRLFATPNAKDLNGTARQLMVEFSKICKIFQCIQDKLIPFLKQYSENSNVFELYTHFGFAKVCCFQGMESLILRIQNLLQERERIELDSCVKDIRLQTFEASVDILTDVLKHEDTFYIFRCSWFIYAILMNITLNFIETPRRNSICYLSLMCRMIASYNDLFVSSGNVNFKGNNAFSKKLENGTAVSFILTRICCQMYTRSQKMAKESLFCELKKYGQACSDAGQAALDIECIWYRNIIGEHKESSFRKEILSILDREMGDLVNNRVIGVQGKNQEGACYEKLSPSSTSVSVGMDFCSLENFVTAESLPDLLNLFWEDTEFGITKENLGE
Outline: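 Full-length yeast transcription factors or their DNA-binding domains, GST-tagged and expressed with PURExpress, were applied at about 100-200 nM to universal all-10-mer Agilent arrays. These arrays had been made double-stranded by primer extension on fresh or once-stripped slides. Detection used fluorescent anti-GST, normalisation used masliner, and E-scores for ungapped eight-base words pooled with reverse complements came from the Universal PBM Analysis Suite.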

Point of comparison: CAGCCATC, “PBM E-score” value -0.24. Against it:
- ACCCTAGA — higher, -0.153
- ACTCAACA — higher, 0.00285
- GGACCGCA — higher, 0.107
- CGTGAGGA — higher, -0.187
- CTTACCGC — higher, 0.12
- AGACGCAG — higher, -0.0432
- CTACCAAC — higher, -0.00162
- AGTTACCC — higher, -0.0391
- GCCAATGA — lower, -0.259
- GACGCTGC — higher, -0.0825
- AGAGATGC — higher, -0.142
- ATGTCCAG — higher, -0.0601
- ATCCGGAT — higher, 0.442
- ATCCGGTA — higher, 0.206
- AGAATTTC — higher, -0.0445
- ACCGTACG — higher, -0.159
- GGATCGAC — higher, 0.0648
- ACAACCCT — higher, -0.208
- ATTTGAAA — higher, 0.194
- ACATCAAA — higher, 0.0764
- CCAAAGGA — higher, -0.102
- CAGTCCAC — lower, -0.325
- CCAGGTAG — higher, -0.2
- ATCAGGAT — higher, 0.115
- CTTCAAAG — higher, 0.103
- ATGTACAG — higher, 0.054
- GCTTATCC — higher, 0.0641
- CAATTCGA — higher, -0.0612
- CGACGTAG — lower, -0.294
- CCTCTACG — higher, -0.114
- GCAGATCA — higher, -0.152
- ATTATAGG — higher, 0.0984
- AAACCAAC — higher, 0.166
- CAAGTGCA — lower, -0.298
- ATCGTATA — higher, 0.17
- AATTACAC — higher, 0.0814
- AAACCTAT — higher, 0.0484
- GCAATTAC — higher, 0.0435
- TAATCAAA — higher, 0.274
- CAATAAGG — higher, -0.165
- ACTGACCA — higher, -0.162
- ATGGCGGC — higher, 0.118
- ACACCAAT — higher, 0.0441
- ACCAGGAT — higher, -0.107
- CCTCCGGC — higher, 0.3
- CTATATGA — higher, 0.134
- TCCTGACA — higher, 0.0359
- CGAATTAG — higher, 0.116
- GCGGACTA — higher, 0.165
- CACCTTCG — higher, 0.0651
- GGGTATAC — higher, -0.0147
- TCGCTGAA — higher, 0.0753
- ATAAGTGG — higher, 0.02
- AACGTGCG — higher, -0.1
- CTACTTCA — higher, -0.0486
- CGCACCAC — higher, -0.139
- AGGCAACA — higher, -0.22
- AGGCGGAA — higher, 0.195
- GGGCGGTA — higher, -0.0752
- TCGCACAA — higher, -0.0958
- ATACATTG — higher, 0.063
- ATGTAGGC — higher, -0.114
- GTGCATCA — higher, 0.0558
- GGCAGCTA — higher, 0.00029
- AGAGCGTC — higher, -0.217
- AGGTCAAT — higher, -0.121
- CCAACCCA — lower, -0.328
- ATTCAGGC — higher, -0.057
- CCACGGTC — higher, -0.194
- ACGACCAT — higher, -0.221
- AAAGGCGA — higher, -0.124
- GGCGCTAC — higher, -0.185
- ACACGGTG — higher, 0.00523
- CGGATCGA — higher, 0.227
- TAAAAAAA — higher, 0.203
- ACTGTACA — higher, -0.0614
- GGTTGAGA — higher, -0.00813
- ACTTCTAC — higher, -0.0211
- TATCTGGA — higher, 0.00154
- CACGCCGC — higher, -0.0484
- CGCCGACA — higher, 0.18
- AGCGTGTC — higher, -0.169
- ATTCCTAG — higher, -0.0295
- CGGTGTGC — higher, -0.15
- ACGGCTTG — higher, -0.0131
- CAGCCAAC — higher, -0.0894
- CTATATAA — higher, 0.0877
- AATATTCT — higher, 0.0516
- CAGAACTG — higher, 0.219
- AGCGGTAT — higher, 0.114
- CGGACCCA — higher, 0.157
- AACGTGAG — higher, -0.0764
- AAGGCAGG — higher, -0.178
- GCATTCCA — lower, -0.242
- ATGGTGAA — higher, -0.00196
- AAAACTAA — higher, 0.203
- CTGATGCA — higher, 0.0132
- ATGAATCC — higher, -0.022
- GTTAAGTA — higher, 0.0522
- CGCATCCC — lower, -0.259
- CTCATATA — higher, 0.0315
- AATATCGA — higher, 0.0873
- ACGGGCCT — higher, -0.134
- CAGCCGAA — higher, 0.229
- CACGGGAG — higher, -0.108
- CGCCGGTA — higher, 0.216
- AAACTATT — higher, 0.119
- GATCCGGC — higher, 0.354
- CGCGAAAC — higher, -0.0391
- CGTACGTA — higher, -0.207
- AGCGCAGA — higher, -0.104
- ATCTAGGA — higher, -0.00133
- AATAAGGT — higher, 0.0627
- ATGATAAG — higher, 0.174
- ACAAGCGT — higher, -0.171
- ATCTTTAG — higher, 0.133
- AGTCGCGC — higher, 0.0958
- CCACTCGG — higher, 0.0777
- TATACGCA — higher, 0.108
- CCGATGAC — higher, 0.0358
- CGATGACC — higher, -0.102
- CGTCCTGC — higher, -0.188
- ACAGCGAT — higher, -0.111
- CGGCTCCA — higher, 0.198
- ACCAATTC — higher, 0.00772
- ATTCCGCC — higher, 0.16
- CAAACAGA — higher, 0.0849
- CCAGTGCG — higher, -0.0822
- CATGTTGC — higher, -0.139
- ACCCGTAT — higher, 0.0115
- GCGTCTAC — higher, 0.0222
- AGATTCTA — higher, 0.124
- AATTAAAC — higher, 0.149
- CACGAATA — higher, 0.0228
- CAAAGTAC — higher, 0.106
- AGGCTTAG — higher, -0.153
- GCAAGGAA — higher, 0.032
- CAGGTCGG — higher, -0.119
- ACCACTTA — higher, -0.0262
- GCAGGAGA — higher, -0.0394
- CTATCCGC — higher, 0.23
- CTTATTGA — higher, 0.208
- GACCCAGC — lower, -0.245
- ATACTACG — higher, 0.0265
- AGCGGGCG — higher, -0.0488
- CGAAACCA — higher, 0.173
- ACCGATAT — higher, 0.0777
- CATCAATA — higher, 0.00105
- AACATTAC — higher, 0.0941
- CGAACCCG — higher, 0.0612
- CAATAGGA — higher, -0.0319
- ACAAACGC — higher, 0.0505
- ACGCCGAA — higher, 0.343
- AGATGGGC — higher, -0.0184
- TAGTAATA — higher, 0.116
- ACTAGGGA — lower, -0.319
- ACTACCAT — higher, -0.106
- AAGCTTAT — higher, 0.134
- AACAACAC — higher, 0.122
- AAGAGACT — higher, 0.0216
- CCATTCGG — higher, 0.124
- CTCGGTAA — higher, 0.256
- AGATATCT — higher, 0.0747
- ACCGTTAA — higher, 0.0476
- GAGTTTGA — higher, 0.0131
- ACGGAAAC — higher, 0.306
- ACCTGGCC — higher, -0.0503
- CATATACG — higher, 0.0731
- ATTTATCG — higher, 0.103
- CGAGTGCC — higher, -0.0795
- AACAAGGA — higher, 0.113
